Results are given in words; binding and its absence hold for the method and conditions named.
Target: Acanthamoeba polyphaga mimivirus uracil-DNA glycosylase (mvUNG), full length (Acanthamoeba polyphaga mimivirus) (UniProt Q5UPT2)
Test: SEC-MALS; purified mvUNG on a Superdex-200 analytical column with inline MALLS (miniDAWN TREOS) and refractive index detectors, flow 0.4 mL/min; both purified

By UniProt entry, the sequences of proteins in these tests, tags left out.
UniProt Q5UPT2: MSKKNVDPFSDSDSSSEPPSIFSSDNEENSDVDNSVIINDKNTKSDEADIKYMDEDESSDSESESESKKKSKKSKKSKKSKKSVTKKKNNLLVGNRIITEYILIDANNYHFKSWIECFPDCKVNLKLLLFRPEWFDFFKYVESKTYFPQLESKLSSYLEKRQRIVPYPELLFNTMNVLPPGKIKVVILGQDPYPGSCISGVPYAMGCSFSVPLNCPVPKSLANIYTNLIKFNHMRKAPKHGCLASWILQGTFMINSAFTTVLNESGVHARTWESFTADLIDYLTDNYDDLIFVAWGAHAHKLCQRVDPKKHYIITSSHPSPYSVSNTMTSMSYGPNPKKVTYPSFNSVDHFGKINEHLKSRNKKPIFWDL

Acanthamoeba polyphaga mimivirus uracil-DNA glycosylase (mvUNG), full length (from UniProt Q5UPT2 1-370) (enzyme)
binding: no binding

Reference: article PMC5538708
